These are yes or no findings as the source states them, for the method shown. In cells and extracts the contact can be indirect. Some binding calls cover weakened binding; strength is not graded here.
Molecular target: Flag-tagged HIV-1 Tat (HIV-1) (UniProt P04608)
Test: co-IP; HEK293T co-transfected with Flag-Tat, NL4-3EGFP and increasing amounts of Myc-tagged chimeric protein; lysate precipitated with Flag antibody and protein A/G agarose, washed with PBS; blots for CycT1 and CDK9

Amino acid sequences for entries named in this document (tags omitted). A change or cut given only in a name is not applied to a line headed by its entry.
UniProt P04608: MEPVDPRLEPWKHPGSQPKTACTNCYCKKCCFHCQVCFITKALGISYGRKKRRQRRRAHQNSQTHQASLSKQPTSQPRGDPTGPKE
UniProt P50750: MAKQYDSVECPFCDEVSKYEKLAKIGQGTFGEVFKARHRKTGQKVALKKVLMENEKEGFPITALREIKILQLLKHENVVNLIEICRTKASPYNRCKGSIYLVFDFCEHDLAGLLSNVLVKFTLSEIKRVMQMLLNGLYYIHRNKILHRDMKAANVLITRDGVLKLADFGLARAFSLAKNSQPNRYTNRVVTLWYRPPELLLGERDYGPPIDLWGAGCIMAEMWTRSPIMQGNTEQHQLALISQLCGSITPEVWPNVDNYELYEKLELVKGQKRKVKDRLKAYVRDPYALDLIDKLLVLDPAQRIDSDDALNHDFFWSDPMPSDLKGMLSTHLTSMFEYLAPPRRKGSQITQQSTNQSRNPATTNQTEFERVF

With “positive transcription elongation factor b (P-TEFb): cyclin-dependent kinase 9 (CDK9) and cyclin T1 (CycT1) (from UniProt P50750 1-372; O60563 1-726) (complex)” the binding was “binds”.
